# Over roughly 33,000 sequences, “E-score (-0.5 to 0.5)” has its median near -0.015; the highest 2% begin near 0.3. This is one part of the list.
# Molecular target: T1, Abf1 (UniProt P14164)
# T1 sequence: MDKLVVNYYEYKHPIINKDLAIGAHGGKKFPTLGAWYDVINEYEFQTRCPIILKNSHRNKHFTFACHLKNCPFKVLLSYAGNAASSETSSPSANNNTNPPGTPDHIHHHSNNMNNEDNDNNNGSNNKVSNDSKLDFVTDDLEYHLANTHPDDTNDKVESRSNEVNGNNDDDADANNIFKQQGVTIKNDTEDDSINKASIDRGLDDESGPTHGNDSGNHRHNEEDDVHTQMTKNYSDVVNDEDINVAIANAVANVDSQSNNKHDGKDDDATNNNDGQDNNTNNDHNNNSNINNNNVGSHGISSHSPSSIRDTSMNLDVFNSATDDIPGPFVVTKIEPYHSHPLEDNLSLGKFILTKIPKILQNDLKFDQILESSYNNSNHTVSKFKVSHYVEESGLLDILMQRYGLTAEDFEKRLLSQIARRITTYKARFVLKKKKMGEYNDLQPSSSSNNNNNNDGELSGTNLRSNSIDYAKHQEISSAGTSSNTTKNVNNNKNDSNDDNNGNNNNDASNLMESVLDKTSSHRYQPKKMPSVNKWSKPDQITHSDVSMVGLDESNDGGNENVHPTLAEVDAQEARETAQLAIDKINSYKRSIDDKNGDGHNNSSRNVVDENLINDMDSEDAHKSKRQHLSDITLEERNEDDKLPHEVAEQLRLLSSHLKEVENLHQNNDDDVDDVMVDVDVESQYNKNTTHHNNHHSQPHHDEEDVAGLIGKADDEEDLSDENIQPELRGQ
# Assay: PBM E-score (8-mer binding enrichment) (E-score (-0.5 to 0.5)); higher = stronger / more preferred TF binding
# Details: protein concentration: 200 nM; construct: GST-full length
# Summary of the method: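 Yeast transcription factors carrying a GST tag, as full-length proteins or DNA-binding domains, were produced by PURExpress in vitro transcription/translation. About 100-200 nM protein was applied to universal all-10-mer Agilent arrays, double-stranded by primer extension on fresh or once-stripped slides. Bound protein was detected with fluorescent anti-GST, and scans were normalised with masliner. The Universal PBM Analysis Suite gave each ungapped eight-base word, pooled with its reverse complement, an E-score, a modified Wilcoxon-Mann-Whitney statistic.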
row,Sequence,PBM E-score
1,AACCACTA,-0.138
2,AGTGCAGC,-0.188
3,ACGATCGA,0.292
4,GTTCCTGA,-0.148
5,AATATGAT,0.236
6,AGTGACGC,-0.0198
7,CGCTTTTA,0.0565
8,ATCACGGC,0.35
9,CTAGAGGC,-0.21
10,GTGCCGGA,0.046
11,CCGTCTCG,0.156
12,ACAAGTCA,0.0441
13,CTGTCGGA,-0.123
14,AACATGGG,-0.0427
15,GGCATAAC,0.109
16,AGATGCTA,0.032
17,ACACGTGG,0.187
18,ATGACAGG,-0.0297
19,AAATGCAT,0.0476
20,TGCAGGCA,-0.169
21,CCAATCGC,-0.113
22,AGCAAGGC,-0.144
23,ACCCTTGG,-0.273
24,TCCAGCCA,-0.232
25,TACAGTGA,0.156

# Three entries from above, with tabs.
row	Sequence	PBM E-score
20	TGCAGGCA	-0.169
21	CCAATCGC	-0.113
22	AGCAAGGC	-0.144

# (listing goes on)

row,Sequence,PBM E-score
1,TACTGCAA,-0.0335
2,ACCTGGAG,-0.0252
3,AACTTGCT,-0.238
4,TATTCCGA,0.119
5,ATTACGTC,0.184
6,CGCATAAC,0.059
7,AACAAGGC,-0.217
8,CACGATTC,0.296
9,GCTCGACA,-0.239
10,CAGGCCTC,-0.312
11,GACTTCCC,-0.129
12,CGAAACAC,0.155
13,GAACCTAA,-0.156
14,GGAGGGAA,-0.206
15,CGCCAAAC,0.00848
16,CCTATACC,-0.126
17,AGATTGGA,0.0781
18,GGCGATCA,-0.0321
19,CAGACAGG,-0.104
20,ACGCGGTG,-0.0744
21,AATACAAA,0.175
22,GAAGATGC,-0.402
23,AAGGGCTG,-0.168
24,CCGATATC,0.21
25,ATTGTCCG,0.0278

# 5 entries picked at random from those above:
row,Sequence,PBM E-score
3,AACTTGCT,-0.238
2,ACCTGGAG,-0.0252
24,CCGATATC,0.21
17,AGATTGGA,0.0781
9,GCTCGACA,-0.239

# More records:

row,Sequence,PBM E-score
1,CCATAGCG,-0.00995
2,AATTGCCA,0.0598
3,GGTACAAA,0.0902
4,CTCGATGA,0.0731
5,AACACCTC,-0.111
6,CGCATCGA,0.137
7,AGCCAGCT,-0.0898
8,TATCACCA,0.364
9,AGGACGAA,0.147
10,AATGCCGT,0.197
11,TAAAGCAA,0.117
12,CATTGCAA,-0.111
13,CTCGCCCA,0.0359
14,TGCAGCCA,-0.139
15,AGCCTTCA,-0.0576
16,CTAGTGAC,0.316
17,CGCAGTAG,-0.11
18,CATGAGCC,0.0171
19,ATTGGGGA,-0.0124
20,AATCACTA,0.359
21,AGATTTCA,-0.0514
22,TATTAAGA,0.121
23,ATCTATTC,0.114
24,GTATTTGA,0.0879
25,GGAGCGAA,-0.0234

row,Sequence,PBM E-score
1,ATGGCATC,0.0457
2,GGGTCACA,-0.194
3,GGGCAGTA,0.119
4,CGGTACGC,0.00533
5,CGTCGCAC,0.277
6,ACGGGATG,0.0243
7,CCTGTTCC,-0.125
8,TCGAAGCA,0.0658
9,CGCCATAA,-0.158
10,GAGAACAC,-0.0612
11,GAACCACA,-0.0389
12,CGGACGTC,-0.0193
13,GACGTGAC,0.294
14,ACCCAGAT,-0.105
15,ATAAGTCC,0.123
16,ATCTTGTA,0.123
17,TACGGACA,0.156
18,AGAATGTC,0.188
19,GACAGTGA,0.245
20,ACACAATA,0.108
21,TAAGCCAA,0.0419
22,TACACGCA,0.0167
23,GAAAGCGA,0.215
24,AACTGCTA,-0.0282
25,CCCAAAGA,-0.132

row,Sequence,PBM E-score
1,CAGGTGTC,-0.146
2,ACATCCAT,0.136
3,GATCTAGA,0.00739
4,AACTAAGA,0.0342
5,AGCCTCTG,-0.329
6,GCGAGAGC,0.00542
7,AATTTAAT,0.0969
8,AGCGAAAG,-0.0038
9,AGACAATA,0.167
10,ACCGCTAA,0.198
11,CATTATCA,0.329
12,CGAAAGAG,-0.0561
13,TAGTATGA,0.226
14,CAAATGCA,0.0345
15,AATTTGCT,0.0613
16,GCAAATGA,0.0478
17,CTCGGTCA,-0.109
18,AAGTGATC,0.41
19,ATATTGGA,0.123
20,TCAGGAAA,0.0608
21,CCGAGCCA,-0.125
22,TAGTGGGA,-0.186
23,ACCCGGGG,-0.162
24,GATTACGC,0.0809
25,ACACACCA,-0.109

row,Sequence,PBM E-score
1,GTAGACGA,0.23
2,AGAGCGAG,-0.0427
3,CCTACGCC,-0.0667
4,ATCACGCC,0.253
5,ACATAGGT,0.0314
6,GCATCATA,0.118
7,GACCAACA,0.0668
8,ATAGAAGA,-0.0814
9,AGAGCCCC,-0.113
10,CCACATAC,0.0427
11,ACACTTGA,-0.163
12,GAAAGTAC,0.0499
13,TCATAGAA,0.121
14,GACGATAC,0.278
15,ATAACCTC,-0.0844
16,CAGTGTAG,-0.00192
17,ATAGTATG,0.161
18,AGGGTGGA,-0.148
19,ACTTACGA,0.325
20,CCCTGGCA,-0.259
21,TAGGAGGA,-0.29
22,ACCTCAAA,0.046
23,CGGGAAGC,0.0638
24,GGAACTAC,-0.11
25,GAAAAACA,-0.164

row,Sequence,PBM E-score
1,CACCCGCC,-0.00431
2,AACACCCC,-0.155
3,GCTTTGCA,-0.0776
4,CTGGCGCA,-0.278
5,CTTACGGC,-0.0264
6,AAACCGGA,0.00218
7,CCGTCCTC,0.0345
8,AACCTTTA,-0.0838
9,GACACAGC,0.0794
10,CCCCCGCC,-0.461
11,AGAGTTAT,-0.0554
12,GACGAGTA,0.164
13,CTTTTAGA,-0.028
14,CCAAGTAA,0.0119
15,GTGCCCAC,-0.214
16,AGAACGAG,0.0783
17,TCCAGGCA,0.172
18,AACGCTAG,-0.178
19,CCATCATC,0.0859
20,ACGTCTCT,0.00432
21,CGATGTCA,0.257
22,CGTCCAAC,0.0461

# Source: the supplement of paper PMC3334620
